According to publication doi:10.1101/648071 (bioRxiv, 2019):
Results are given in words; binding and its absence hold for the method and conditions named. Some results given as binding are weak or reduced against the parent protein; the word gives no strength.

Sequences of proteins named here, by UniProt entry; tags and fusion partners are left off. Residues count along the entry.
UniProt P40699, 140-297: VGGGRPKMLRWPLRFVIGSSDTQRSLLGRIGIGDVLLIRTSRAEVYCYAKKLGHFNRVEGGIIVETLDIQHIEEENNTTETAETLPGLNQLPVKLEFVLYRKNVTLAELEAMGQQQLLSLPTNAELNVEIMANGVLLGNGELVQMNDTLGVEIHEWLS
UniProt P40699, 1-145: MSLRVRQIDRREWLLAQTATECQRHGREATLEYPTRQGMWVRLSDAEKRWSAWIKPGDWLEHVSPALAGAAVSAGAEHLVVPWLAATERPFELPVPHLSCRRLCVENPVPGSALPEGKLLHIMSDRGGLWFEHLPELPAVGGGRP
UniProt P40699, whole entry: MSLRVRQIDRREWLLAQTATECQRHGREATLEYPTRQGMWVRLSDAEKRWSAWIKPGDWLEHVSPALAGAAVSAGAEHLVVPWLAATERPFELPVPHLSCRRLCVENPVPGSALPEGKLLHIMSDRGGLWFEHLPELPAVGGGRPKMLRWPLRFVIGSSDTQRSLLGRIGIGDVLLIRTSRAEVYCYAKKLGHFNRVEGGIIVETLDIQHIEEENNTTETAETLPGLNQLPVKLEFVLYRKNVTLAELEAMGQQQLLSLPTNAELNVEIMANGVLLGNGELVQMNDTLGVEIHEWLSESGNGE

Experiments:
[1] = molecular target: SpaO N-terminal domain (SpaO 1-145) (Salmonella Typhimurium strain SL1344) (UniProt P40699); experiment: SEC-MALS
[2] = molecular target: SpaO SPOA1-SPOA2 construct (SpaO 140-297) (Salmonella Typhimurium strain SL1344) (UniProt P40699); experiment: native MS
[3] = molecular target: SpaO SPOA1-SPOA2 construct (SpaO 140-297) (Salmonella Typhimurium strain SL1344) (UniProt P40699); experiment: SEC-MALS
[4] = molecular target: SpaO in the SpaO/SpaOC/OrgB/InvC complex (spaO+orgB+invC co-expression) (Salmonella Typhimurium strain SL1344) (UniProt P40699); experiment: SEC-MALS

For “SpaO N-terminal domain (SpaO 1-145) (from UniProt P40699 1-145) (domain or fragment)”, the binding [1] was “no binding” and the binding [2] was “no binding”.
With “SpaO SPOA1-SPOA2 construct (SpaO 140-297) (from UniProt P40699 140-297) (domain or fragment)” the binding [3] was “no binding”.
For “SpaOC in the SpaO/SpaOC/OrgB/InvC complex (spaO+orgB+invC co-expression) (from UniProt P40699 203-303)”, the binding [4] was “binds”.
For “SpaOC, short product of the spaO gene, C-terminal Strep-tag (from UniProt P40699 203-303)”, the binding [3] was “binds weakly”.
